{"source": "PubChem BioAssay AID1224828 | NIAID | 2016", "aim": "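Knock-downs that increase or decrease LPS-induced p65 nuclear translocation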 (primary screen)", "cells": "mouse RAW264.7 G9 macrophage reporter cells (GFP-p65, Tnf promoter-mCherry)", "knock-down reagent": "siRNA pool against mouse genes, 100 nM", "timing": "2 days siRNA transfection, then 40 min LPS before fixation", "conditions": "LPS (Salmonella minnesota R595) at 10 ng/ml", "detection": "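Microscopy ratio of nuclear to perinuclear-ring GFP-p65 signal, scaled to the plate median; gene score is the average of two replicate robust z-scores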", "reading the numbers": "p65 translocation robust z-score: higher = more nuclear NF-kappaB p65 after LPS than the plate median; nuclear/cytoplasmic p65 ratio: higher = more nuclear NF-kappaB p65", "call rule": "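Called active when z exceeds 3.3 or falls under -1.56 (median of Tlr4 controls), giving activity score of at least 50; no calls for control wells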", "meaning of the calls": "active = hit (p65 shift raised or lowered); inactive = no clear change", "note": "Shown is a random part of about 17,000 reagents. 762 of them (4.5%) were called active. 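Active calls include both raised and lowered p65 entry, mostly lowered; wells with fewer than 50 cells lack a z-score.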 The raw values are shown without normalisation. Some reagents were tested in more than one well and are listed for each."}
{"Target gene":"Rec8 (REC8 meiotic recombination protein)","p65 translocation robust z-score":1.12,"nuclear/cytoplasmic p65 ratio, rep 1":1.73,"nuclear/cytoplasmic p65 ratio, rep 2":1.62,"low cell count flag":"enough cells to score","outcome":"inactive"}
{"Target gene":"Fbxl12 (F-box and leucine-rich repeat protein 12)","p65 translocation robust z-score":-1.96,"nuclear/cytoplasmic p65 ratio, rep 1":1.29,"nuclear/cytoplasmic p65 ratio, rep 2":1.11,"low cell count flag":"enough cells to score","outcome":"active"}
{"Target gene":"Eps8l2 (EPS8-like 2)","p65 translocation robust z-score":1.42,"nuclear/cytoplasmic p65 ratio, rep 1":1.63,"nuclear/cytoplasmic p65 ratio, rep 2":1.82,"low cell count flag":"enough cells to score","outcome":"inactive"}
{"Target gene":"Araf (Araf proto-oncogene, serine/threonine kinase)","nuclear/cytoplasmic p65 ratio, rep 1":1.35,"nuclear/cytoplasmic p65 ratio, rep 2":1.3,"low cell count flag":"fewer than 50 cells per well; well left out of scoring","outcome":"inactive"}
{"Target gene":"Or8c17 (olfactory receptor family 8 subfamily C member 17)","p65 translocation robust z-score":-0.44,"nuclear/cytoplasmic p65 ratio, rep 1":1.32,"nuclear/cytoplasmic p65 ratio, rep 2":1.27,"low cell count flag":"enough cells to score","outcome":"inactive"}
{"Target gene":"Kpna3 (karyopherin subunit alpha 3)","p65 translocation robust z-score":-0.37,"nuclear/cytoplasmic p65 ratio, rep 1":1.47,"nuclear/cytoplasmic p65 ratio, rep 2":1.29,"low cell count flag":"enough cells to score","outcome":"inactive"}
{"Target gene":"Btf3 (basic transcription factor 3)","p65 translocation robust z-score":-0.98,"nuclear/cytoplasmic p65 ratio, rep 1":1.43,"nuclear/cytoplasmic p65 ratio, rep 2":1.51,"low cell count flag":"enough cells to score","outcome":"inactive"}
{"Target gene":"Atp6v0d2 (ATPase, H+ transporting, lysosomal V0 subunit D2)","p65 translocation robust z-score":-0.82,"nuclear/cytoplasmic p65 ratio, rep 1":1.38,"nuclear/cytoplasmic p65 ratio, rep 2":1.5,"low cell count flag":"enough cells to score","outcome":"inactive"}
{"Target gene":"Large2 (LARGE xylosyl- and glucuronyltransferase 2)","p65 translocation robust z-score":-1.92,"nuclear/cytoplasmic p65 ratio, rep 1":1.38,"nuclear/cytoplasmic p65 ratio, rep 2":1.25,"low cell count flag":"enough cells to score","outcome":"active"}
{"Target gene":"Atxn7l2 (ataxin 7-like 2)","nuclear/cytoplasmic p65 ratio, rep 1":1.28,"nuclear/cytoplasmic p65 ratio, rep 2":1.17,"low cell count flag":"fewer than 50 cells per well; well left out of scoring","outcome":"inactive"}
{"Target gene":"Npr2 (natriuretic peptide receptor 2)","p65 translocation robust z-score":-1.62,"nuclear/cytoplasmic p65 ratio, rep 1":1.35,"nuclear/cytoplasmic p65 ratio, rep 2":1.23,"low cell count flag":"enough cells to score","outcome":"active"}
{"Target gene":"Npr2 (natriuretic peptide receptor 2)","p65 translocation robust z-score":-1.37,"nuclear/cytoplasmic p65 ratio, rep 1":1.32,"nuclear/cytoplasmic p65 ratio, rep 2":1.38,"low cell count flag":"enough cells to score","outcome":"inactive"}
{"Target gene":"Zfp599 (zinc finger protein 599)","p65 translocation robust z-score":0.17,"nuclear/cytoplasmic p65 ratio, rep 1":1.48,"nuclear/cytoplasmic p65 ratio, rep 2":1.52,"low cell count flag":"enough cells to score","outcome":"inactive"}
{"Target gene":"Itpkb (inositol 1,4,5-trisphosphate 3-kinase B)","p65 translocation robust z-score":0.65,"nuclear/cytoplasmic p65 ratio, rep 1":1.53,"nuclear/cytoplasmic p65 ratio, rep 2":1.46,"low cell count flag":"enough cells to score","outcome":"inactive"}
{"Target gene":"Scyl2 (SCY1-like 2 (S. cerevisiae))","p65 translocation robust z-score":0.02,"nuclear/cytoplasmic p65 ratio, rep 1":1.72,"nuclear/cytoplasmic p65 ratio, rep 2":1.37,"low cell count flag":"enough cells to score","outcome":"inactive"}
{"Target gene":"Or13c7b (olfactory receptor family 13 subfamily C member 7B)","p65 translocation robust z-score":-0.37,"nuclear/cytoplasmic p65 ratio, rep 1":1.58,"nuclear/cytoplasmic p65 ratio, rep 2":1.35,"low cell count flag":"enough cells to score","outcome":"inactive"}
{"Target gene":"Blvrb (biliverdin reductase B)","p65 translocation robust z-score":-0.02,"nuclear/cytoplasmic p65 ratio, rep 1":1.64,"nuclear/cytoplasmic p65 ratio, rep 2":1.58,"low cell count flag":"enough cells to score","outcome":"inactive"}
{"Target gene":"Snrnp70 (small nuclear ribonucleoprotein 70 (U1))","p65 translocation robust z-score":-0.74,"nuclear/cytoplasmic p65 ratio, rep 1":1.34,"nuclear/cytoplasmic p65 ratio, rep 2":1.15,"low cell count flag":"enough cells to score","outcome":"inactive"}
{"Target gene":"Lrrc49 (leucine rich repeat containing 49)","p65 translocation robust z-score":-0.19,"nuclear/cytoplasmic p65 ratio, rep 1":1.52,"nuclear/cytoplasmic p65 ratio, rep 2":1.54,"low cell count flag":"enough cells to score","outcome":"inactive"}
{"Target gene":"Gfap (glial fibrillary acidic protein)","p65 translocation robust z-score":-1.01,"nuclear/cytoplasmic p65 ratio, rep 1":1.29,"nuclear/cytoplasmic p65 ratio, rep 2":1.25,"low cell count flag":"enough cells to score","outcome":"inactive"}
{"Target gene":"Gabra6 (gamma-aminobutyric acid type A receptor subunit alpha 6)","p65 translocation robust z-score":1.75,"nuclear/cytoplasmic p65 ratio, rep 1":1.74,"nuclear/cytoplasmic p65 ratio, rep 2":1.52,"low cell count flag":"enough cells to score","outcome":"inactive"}
{"Target gene":"Mnt (max binding protein)","p65 translocation robust z-score":-1.1,"nuclear/cytoplasmic p65 ratio, rep 1":1.29,"nuclear/cytoplasmic p65 ratio, rep 2":1.21,"low cell count flag":"enough cells to score","outcome":"inactive"}
{"Target gene":"Ddx51 (DEAD box helicase 51)","nuclear/cytoplasmic p65 ratio, rep 1":1.37,"nuclear/cytoplasmic p65 ratio, rep 2":1.29,"low cell count flag":"fewer than 50 cells per well; well left out of scoring","outcome":"inactive"}
{"Target gene":"Ca12 (carbonic anhydrase 12)","p65 translocation robust z-score":0.43,"nuclear/cytoplasmic p65 ratio, rep 1":1.69,"nuclear/cytoplasmic p65 ratio, rep 2":1.66,"low cell count flag":"enough cells to score","outcome":"inactive"}
{"Target gene":"Chmp1b2 (charged multivesicular body protein 1B2)","p65 translocation robust z-score":-0.81,"nuclear/cytoplasmic p65 ratio, rep 1":1.26,"nuclear/cytoplasmic p65 ratio, rep 2":1.35,"low cell count flag":"enough cells to score","outcome":"inactive"}
{"Target gene":"Pcdh1 (protocadherin 1)","p65 translocation robust z-score":-0.23,"nuclear/cytoplasmic p65 ratio, rep 1":1.57,"nuclear/cytoplasmic p65 ratio, rep 2":1.36,"low cell count flag":"enough cells to score","outcome":"inactive"}
{"Target gene":"Serpini2 (serine (or cysteine) peptidase inhibitor, clade I, member 2)","p65 translocation robust z-score":0.78,"nuclear/cytoplasmic p65 ratio, rep 1":1.64,"nuclear/cytoplasmic p65 ratio, rep 2":1.6,"low cell count flag":"enough cells to score","outcome":"inactive"}

4 entries already listed, arranged by “nuclear/cytoplasmic p65 ratio, rep 2”, low to high.
{"Target gene":"Ddx51 (DEAD box helicase 51)","nuclear/cytoplasmic p65 ratio, rep 1":1.37,"nuclear/cytoplasmic p65 ratio, rep 2":1.29,"low cell count flag":"fewer than 50 cells per well; well left out of scoring","outcome":"inactive"}
{"Target gene":"Chmp1b2 (charged multivesicular body protein 1B2)","p65 translocation robust z-score":-0.81,"nuclear/cytoplasmic p65 ratio, rep 1":1.26,"nuclear/cytoplasmic p65 ratio, rep 2":1.35,"low cell count flag":"enough cells to score","outcome":"inactive"}
{"Target gene":"Pcdh1 (protocadherin 1)","p65 translocation robust z-score":-0.23,"nuclear/cytoplasmic p65 ratio, rep 1":1.57,"nuclear/cytoplasmic p65 ratio, rep 2":1.36,"low cell count flag":"enough cells to score","outcome":"inactive"}
{"Target gene":"Ca12 (carbonic anhydrase 12)","p65 translocation robust z-score":0.43,"nuclear/cytoplasmic p65 ratio, rep 1":1.69,"nuclear/cytoplasmic p65 ratio, rep 2":1.66,"low cell count flag":"enough cells to score","outcome":"inactive"}
